{"sequences": {"note": "The chains behind the UniProt entries cited, without tags or fusion partners. Where a name states a change or a piece, a line headed by the entry shows the natural chain unless it says otherwise.", "UniProt O94992": "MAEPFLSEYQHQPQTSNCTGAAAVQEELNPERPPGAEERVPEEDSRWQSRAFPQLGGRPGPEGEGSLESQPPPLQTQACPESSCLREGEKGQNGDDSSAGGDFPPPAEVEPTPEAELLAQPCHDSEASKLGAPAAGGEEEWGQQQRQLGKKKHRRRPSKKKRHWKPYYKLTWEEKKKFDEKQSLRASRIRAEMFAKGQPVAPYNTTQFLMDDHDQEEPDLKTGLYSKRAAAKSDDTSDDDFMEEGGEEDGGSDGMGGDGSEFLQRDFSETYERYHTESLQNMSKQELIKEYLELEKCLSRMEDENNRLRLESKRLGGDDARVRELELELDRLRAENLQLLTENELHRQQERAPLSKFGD", "UniProt P50750": "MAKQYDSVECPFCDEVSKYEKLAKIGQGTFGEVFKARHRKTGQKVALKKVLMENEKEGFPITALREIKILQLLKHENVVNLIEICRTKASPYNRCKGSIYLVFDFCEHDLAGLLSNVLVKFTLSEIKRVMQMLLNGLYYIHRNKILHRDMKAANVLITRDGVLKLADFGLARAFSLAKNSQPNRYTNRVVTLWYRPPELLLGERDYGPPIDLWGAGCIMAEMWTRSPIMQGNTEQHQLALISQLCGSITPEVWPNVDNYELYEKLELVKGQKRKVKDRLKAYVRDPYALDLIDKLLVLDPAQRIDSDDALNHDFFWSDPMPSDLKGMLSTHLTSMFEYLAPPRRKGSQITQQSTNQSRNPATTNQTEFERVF"}, "source": "paper doi:10.1101/316935", "biological_target": "HEXIM1 (human (endogenous in MRC5)) (UniProt O94992)", "assay": "co-IP", "note": "Results are given in words; binding and its absence hold for the method and conditions named. Binding seen in cells or lysates may run through a third protein. Some entries that bind do so weakly or less than the wild type."}
{"substance": "CDK9/CyclinT1 (from UniProt P50750 1-372; O60563 1-726) (complex)", "values": [{"measurement": "binding", "result": "binds"}]}
